Measurements reported in PMC11050395.
No constants are given. Whether binding was seen depends on the method and setting. In cells and extracts the contact can be indirect. Binding can be weak; no strength is given.

Protein sequences, listed by entry. Tags and fused reporters are not part of them. Lines headed by an entry give the natural chain unless they say otherwise; changes in a name come on top.
UniProt P19367: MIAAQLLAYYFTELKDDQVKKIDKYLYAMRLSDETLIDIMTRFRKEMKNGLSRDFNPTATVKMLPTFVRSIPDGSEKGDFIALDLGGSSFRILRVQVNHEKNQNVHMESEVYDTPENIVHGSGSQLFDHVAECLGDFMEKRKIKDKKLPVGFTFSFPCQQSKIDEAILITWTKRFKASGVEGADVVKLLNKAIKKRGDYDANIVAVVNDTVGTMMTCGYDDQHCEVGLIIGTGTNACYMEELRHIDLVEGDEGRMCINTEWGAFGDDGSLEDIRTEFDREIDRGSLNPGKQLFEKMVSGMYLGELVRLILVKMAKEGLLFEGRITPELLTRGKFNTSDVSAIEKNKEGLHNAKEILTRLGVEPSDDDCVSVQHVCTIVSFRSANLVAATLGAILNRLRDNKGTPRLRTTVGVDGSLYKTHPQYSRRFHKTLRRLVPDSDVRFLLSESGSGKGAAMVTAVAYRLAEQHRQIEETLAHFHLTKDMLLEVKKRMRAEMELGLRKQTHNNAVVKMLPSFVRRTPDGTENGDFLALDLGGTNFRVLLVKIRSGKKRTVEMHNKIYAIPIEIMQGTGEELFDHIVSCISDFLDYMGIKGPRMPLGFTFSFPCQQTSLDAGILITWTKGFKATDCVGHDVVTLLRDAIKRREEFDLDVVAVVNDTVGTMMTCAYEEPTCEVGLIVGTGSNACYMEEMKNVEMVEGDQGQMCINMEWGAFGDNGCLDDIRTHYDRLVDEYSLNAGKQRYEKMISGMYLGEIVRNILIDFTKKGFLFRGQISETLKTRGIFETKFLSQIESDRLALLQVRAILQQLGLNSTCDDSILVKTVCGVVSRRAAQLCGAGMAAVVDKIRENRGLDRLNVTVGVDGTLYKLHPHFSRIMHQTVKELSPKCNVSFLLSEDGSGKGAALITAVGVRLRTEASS
UniProt P21796: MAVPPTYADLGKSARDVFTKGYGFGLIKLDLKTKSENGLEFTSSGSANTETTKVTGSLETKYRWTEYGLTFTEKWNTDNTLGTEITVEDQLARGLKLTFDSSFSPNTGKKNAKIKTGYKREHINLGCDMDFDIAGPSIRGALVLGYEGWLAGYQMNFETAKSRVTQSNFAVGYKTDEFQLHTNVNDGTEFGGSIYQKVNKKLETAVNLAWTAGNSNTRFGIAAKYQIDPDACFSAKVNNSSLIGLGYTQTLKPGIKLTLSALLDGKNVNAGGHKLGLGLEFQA

Biological target: wild-type Hexokinase 1 with a C-terminal Flag tag (HKI-wt) (human) (UniProt P19367)
Assay: co-IP; HEK293T cells transfected with Flag-tagged HKI-wt or HKI-mut, lysed 48 h after transfection (Tris HCl 0.5 M pH 8, NaCl 0.1 M, EDTA 2 mM, Triton 0.1%); IP with anti-Flag antibody on Dynabeads Protein G; Western blot for VDAC

binding: binds
Substance: Voltage-Dependent Anion Channel-1 (VDAC) (from UniProt P21796 1-283)
